Laboratory results as given in the supplement of paper PMC12823440, “Inhibitors supercharge kinase turnover through native proteolytic circuits” (Nature, 2025).
Structures can show the parent of a compound that is named as a salt. The list shows a part of the results. Hit calls seldom repeat between salt and free forms of one compound.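 Kinases, fused to nanoluciferase, were expressed in K562 cells; luminescence was measured every 4 h from 2 to 18 h as percent of control (DMSO = 100%, positive control = 0%). A time point is decreased if signal falls significantly (2 sigma). Hits were called by the authors by a rule that is not shown; the count of time points alone does not decide it.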

By UniProt entry, the sequences of proteins in these tests, tags left out. Where a name states a change or a piece, a line headed by the entry shows the natural chain unless it says otherwise.
UniProt O75460: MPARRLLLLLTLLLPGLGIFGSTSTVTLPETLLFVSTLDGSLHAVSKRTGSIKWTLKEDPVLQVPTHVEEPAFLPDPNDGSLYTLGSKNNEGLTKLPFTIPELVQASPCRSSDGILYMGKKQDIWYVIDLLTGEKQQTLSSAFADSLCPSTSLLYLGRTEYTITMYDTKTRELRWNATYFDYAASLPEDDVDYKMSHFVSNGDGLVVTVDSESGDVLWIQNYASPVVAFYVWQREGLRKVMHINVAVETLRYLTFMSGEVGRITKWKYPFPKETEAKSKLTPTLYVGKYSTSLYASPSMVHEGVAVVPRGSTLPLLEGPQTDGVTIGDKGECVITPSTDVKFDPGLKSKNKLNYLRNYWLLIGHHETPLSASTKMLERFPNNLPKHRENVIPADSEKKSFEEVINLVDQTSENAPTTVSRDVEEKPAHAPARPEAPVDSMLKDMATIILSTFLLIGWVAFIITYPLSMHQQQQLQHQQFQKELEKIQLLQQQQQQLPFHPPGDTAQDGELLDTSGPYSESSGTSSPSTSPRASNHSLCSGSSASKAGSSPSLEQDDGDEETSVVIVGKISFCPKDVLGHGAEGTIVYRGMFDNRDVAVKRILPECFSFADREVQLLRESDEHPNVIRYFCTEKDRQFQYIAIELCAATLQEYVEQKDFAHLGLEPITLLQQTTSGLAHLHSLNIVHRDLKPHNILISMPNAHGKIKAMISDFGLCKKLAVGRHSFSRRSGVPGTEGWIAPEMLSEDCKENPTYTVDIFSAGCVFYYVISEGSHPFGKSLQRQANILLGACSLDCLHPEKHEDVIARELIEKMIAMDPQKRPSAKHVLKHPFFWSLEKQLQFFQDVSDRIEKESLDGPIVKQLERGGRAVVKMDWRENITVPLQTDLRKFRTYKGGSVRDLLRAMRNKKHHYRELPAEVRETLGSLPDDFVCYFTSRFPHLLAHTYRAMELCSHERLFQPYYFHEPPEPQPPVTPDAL
UniProt P11362, whole entry, looked up: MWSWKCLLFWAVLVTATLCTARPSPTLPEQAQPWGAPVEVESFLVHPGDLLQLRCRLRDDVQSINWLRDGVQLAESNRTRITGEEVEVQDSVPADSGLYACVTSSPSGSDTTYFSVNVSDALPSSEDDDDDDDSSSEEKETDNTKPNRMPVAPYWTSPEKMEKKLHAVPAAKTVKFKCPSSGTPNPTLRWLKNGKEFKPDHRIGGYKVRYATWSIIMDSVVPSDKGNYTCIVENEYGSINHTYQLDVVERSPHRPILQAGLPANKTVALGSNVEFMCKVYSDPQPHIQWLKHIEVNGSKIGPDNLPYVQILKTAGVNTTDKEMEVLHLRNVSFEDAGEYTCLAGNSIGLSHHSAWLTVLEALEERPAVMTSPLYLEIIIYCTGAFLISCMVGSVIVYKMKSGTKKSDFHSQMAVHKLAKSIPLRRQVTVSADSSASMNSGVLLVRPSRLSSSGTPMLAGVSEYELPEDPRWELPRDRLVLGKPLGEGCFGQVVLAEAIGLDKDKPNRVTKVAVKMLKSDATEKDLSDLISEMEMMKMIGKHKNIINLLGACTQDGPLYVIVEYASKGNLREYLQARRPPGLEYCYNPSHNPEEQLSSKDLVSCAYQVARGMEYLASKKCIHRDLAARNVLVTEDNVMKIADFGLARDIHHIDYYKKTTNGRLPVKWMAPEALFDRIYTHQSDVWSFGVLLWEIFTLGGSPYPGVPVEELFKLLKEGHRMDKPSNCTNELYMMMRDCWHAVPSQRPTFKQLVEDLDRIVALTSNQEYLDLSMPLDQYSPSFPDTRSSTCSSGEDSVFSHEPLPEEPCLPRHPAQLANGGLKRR
UniProt P21802, whole entry, looked up: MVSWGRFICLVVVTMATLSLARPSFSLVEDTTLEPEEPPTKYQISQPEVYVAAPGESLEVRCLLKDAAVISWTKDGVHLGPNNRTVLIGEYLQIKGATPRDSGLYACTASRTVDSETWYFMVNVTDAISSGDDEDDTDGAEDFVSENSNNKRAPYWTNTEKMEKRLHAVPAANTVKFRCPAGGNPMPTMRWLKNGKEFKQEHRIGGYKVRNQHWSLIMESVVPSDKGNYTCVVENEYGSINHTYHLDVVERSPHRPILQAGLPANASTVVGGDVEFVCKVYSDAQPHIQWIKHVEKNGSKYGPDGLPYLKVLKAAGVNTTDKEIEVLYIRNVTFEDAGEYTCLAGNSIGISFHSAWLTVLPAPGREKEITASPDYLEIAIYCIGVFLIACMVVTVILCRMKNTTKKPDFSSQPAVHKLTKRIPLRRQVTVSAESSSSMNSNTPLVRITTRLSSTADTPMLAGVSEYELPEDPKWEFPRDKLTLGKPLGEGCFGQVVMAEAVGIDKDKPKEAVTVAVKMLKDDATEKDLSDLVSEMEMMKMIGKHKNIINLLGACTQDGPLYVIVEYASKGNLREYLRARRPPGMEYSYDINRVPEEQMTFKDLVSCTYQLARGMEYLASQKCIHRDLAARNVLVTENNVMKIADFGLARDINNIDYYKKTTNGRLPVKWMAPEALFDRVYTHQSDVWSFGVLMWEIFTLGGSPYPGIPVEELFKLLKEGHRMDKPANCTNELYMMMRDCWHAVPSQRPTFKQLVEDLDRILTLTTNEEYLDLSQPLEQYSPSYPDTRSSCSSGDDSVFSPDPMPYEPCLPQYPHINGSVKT
UniProt P22607, whole entry, looked up: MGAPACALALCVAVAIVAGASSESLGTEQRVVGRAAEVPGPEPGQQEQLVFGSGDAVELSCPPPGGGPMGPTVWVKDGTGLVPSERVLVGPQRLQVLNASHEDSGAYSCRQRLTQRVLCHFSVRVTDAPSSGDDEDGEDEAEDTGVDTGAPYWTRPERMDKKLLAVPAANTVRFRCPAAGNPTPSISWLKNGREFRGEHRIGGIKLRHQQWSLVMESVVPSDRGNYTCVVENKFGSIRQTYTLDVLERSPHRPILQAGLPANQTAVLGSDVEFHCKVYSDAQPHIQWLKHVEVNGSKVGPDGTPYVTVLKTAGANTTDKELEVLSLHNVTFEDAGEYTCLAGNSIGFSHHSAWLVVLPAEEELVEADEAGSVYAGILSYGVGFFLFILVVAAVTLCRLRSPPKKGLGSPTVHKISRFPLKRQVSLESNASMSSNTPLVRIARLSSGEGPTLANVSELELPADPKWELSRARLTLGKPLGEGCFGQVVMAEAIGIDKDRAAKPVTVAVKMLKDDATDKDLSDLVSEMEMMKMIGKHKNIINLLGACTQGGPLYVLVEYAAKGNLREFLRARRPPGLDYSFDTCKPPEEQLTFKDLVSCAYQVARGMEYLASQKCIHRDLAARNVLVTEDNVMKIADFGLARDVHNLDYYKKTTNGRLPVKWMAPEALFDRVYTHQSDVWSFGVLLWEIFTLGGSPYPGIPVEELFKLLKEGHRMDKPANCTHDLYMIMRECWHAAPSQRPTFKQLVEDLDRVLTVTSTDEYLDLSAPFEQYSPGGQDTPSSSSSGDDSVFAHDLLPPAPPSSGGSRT
UniProt P06241, whole entry, looked up: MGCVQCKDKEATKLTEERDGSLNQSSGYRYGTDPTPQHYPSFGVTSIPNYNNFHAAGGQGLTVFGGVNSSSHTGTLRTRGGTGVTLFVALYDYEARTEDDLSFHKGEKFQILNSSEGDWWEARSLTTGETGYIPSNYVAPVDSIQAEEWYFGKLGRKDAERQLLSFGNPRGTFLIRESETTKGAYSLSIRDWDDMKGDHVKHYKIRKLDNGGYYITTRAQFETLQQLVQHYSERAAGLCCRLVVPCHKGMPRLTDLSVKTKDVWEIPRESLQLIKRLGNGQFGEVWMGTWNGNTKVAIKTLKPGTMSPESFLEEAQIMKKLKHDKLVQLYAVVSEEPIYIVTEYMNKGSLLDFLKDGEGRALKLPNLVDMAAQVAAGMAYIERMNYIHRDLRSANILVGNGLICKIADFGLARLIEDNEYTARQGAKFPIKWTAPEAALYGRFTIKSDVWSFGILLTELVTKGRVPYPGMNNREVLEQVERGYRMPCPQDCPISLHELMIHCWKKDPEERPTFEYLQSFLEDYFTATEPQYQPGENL
UniProt P49840: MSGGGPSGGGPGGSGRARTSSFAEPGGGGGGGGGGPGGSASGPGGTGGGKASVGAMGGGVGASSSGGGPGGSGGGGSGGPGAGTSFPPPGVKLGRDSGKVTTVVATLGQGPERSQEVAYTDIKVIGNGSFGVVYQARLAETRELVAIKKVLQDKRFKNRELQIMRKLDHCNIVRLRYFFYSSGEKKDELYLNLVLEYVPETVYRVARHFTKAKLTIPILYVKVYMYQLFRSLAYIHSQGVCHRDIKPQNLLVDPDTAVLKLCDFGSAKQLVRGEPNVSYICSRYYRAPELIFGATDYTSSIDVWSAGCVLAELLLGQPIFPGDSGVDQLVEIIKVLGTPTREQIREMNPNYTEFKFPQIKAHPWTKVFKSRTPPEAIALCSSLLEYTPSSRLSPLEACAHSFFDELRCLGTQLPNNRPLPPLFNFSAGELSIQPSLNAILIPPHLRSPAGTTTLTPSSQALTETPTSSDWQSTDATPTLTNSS
UniProt P14616: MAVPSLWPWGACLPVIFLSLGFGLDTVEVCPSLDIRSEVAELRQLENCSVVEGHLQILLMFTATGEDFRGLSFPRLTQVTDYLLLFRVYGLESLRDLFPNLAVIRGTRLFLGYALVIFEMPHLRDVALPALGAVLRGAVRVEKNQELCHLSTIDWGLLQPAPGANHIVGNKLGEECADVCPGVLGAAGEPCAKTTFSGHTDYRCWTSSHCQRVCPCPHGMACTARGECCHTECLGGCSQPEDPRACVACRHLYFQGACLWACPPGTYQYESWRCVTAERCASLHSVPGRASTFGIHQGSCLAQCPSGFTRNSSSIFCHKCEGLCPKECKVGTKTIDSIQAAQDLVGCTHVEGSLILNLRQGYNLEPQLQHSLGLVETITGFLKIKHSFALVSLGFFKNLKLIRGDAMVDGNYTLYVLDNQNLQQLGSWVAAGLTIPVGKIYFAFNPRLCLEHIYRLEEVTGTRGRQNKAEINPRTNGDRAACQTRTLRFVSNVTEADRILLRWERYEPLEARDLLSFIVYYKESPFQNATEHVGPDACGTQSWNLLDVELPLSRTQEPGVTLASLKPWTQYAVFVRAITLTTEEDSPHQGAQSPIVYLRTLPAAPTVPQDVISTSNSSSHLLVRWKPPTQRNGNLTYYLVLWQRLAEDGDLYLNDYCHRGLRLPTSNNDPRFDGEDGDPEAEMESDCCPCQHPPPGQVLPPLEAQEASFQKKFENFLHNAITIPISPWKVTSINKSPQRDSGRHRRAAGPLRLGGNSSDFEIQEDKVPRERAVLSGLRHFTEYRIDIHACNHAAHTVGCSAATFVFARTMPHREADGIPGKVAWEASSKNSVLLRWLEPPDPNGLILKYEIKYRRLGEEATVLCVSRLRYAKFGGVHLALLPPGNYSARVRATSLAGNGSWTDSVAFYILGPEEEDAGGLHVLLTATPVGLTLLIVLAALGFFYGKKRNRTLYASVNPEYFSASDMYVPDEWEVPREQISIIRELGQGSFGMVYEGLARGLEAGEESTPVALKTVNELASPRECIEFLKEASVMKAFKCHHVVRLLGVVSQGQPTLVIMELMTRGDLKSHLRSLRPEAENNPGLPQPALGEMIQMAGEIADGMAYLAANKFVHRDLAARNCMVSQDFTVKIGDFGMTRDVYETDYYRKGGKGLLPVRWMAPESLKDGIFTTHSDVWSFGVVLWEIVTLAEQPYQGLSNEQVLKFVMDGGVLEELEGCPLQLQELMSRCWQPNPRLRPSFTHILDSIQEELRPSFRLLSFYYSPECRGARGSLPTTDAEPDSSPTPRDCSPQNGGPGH

What was measured:
Assay in all cases: kinase-Nluc reporter destabilization hit call (1 = scored as downregulated) (binary); higher = compound decreases kinase abundance
Settings in all cases: K562; 2-18 h
[1] = biological target: ERN1 (UniProt O75460)
[2] = biological target: FGFR1 (UniProt P11362)
[3] = biological target: FGFR2 (UniProt P21802)
[4] = biological target: FGFR3 (UniProt P22607)
[5] = biological target: FGR (UniProt P09769)
[6] = biological target: FLT3 (UniProt P36888)
[7] = biological target: FYN (UniProt P06241)
[8] = biological target: GSK3A (UniProt P49840)
[9] = biological target: HER2 (UniProt P04626)
[10] = biological target: INSRR (UniProt P14616)

Measured: kinase-Nluc reporter destabilization hit call

O=c1[nH]ccc2nc(-c3ccc(CN4CCC(c5nc(-c6ccccn6)n[nH]5)CC4)cc3)c(-c3ccccc3)cc12 (10 µM)
inactive: [1] 0 | [2] 0 | [3] 0 | [4] 0 | [5] 0 | [6] 0 | [7] 0 | [8] 0 | [9] 0 | [10] 0

CNC(=O)CNc1cnc2ccc(-c3ccc(OC)c(OC)c3)cc2n1 (10 µM)
inactive: [1] 0 | [2] 0 | [3] 0 | [4] 0 | [5] 0 | [6] 0 | [7] 0 | [8] 0 | [9] 0 | [10] 0

O=c1c2c([nH]n1-c1nc3ccccc3s1)CCCC2 (10 µM)
inactive: [1] 0 | [2] 0 | [3] 0 | [4] 0 | [5] 0 | [6] 0 | [7] 0 | [8] 0 | [9] 0 | [10] 0

Cc1cccc(COc2cccc(/C=C3\C(=O)NN(c4ccccc4)C3=O)c2)c1 (10 µM)
inactive: [1] 0 | [2] 0 | [3] 0 | [4] 0 | [5] 0 | [6] 0 | [7] 0 | [8] 0 | [9] 0 | [10] 0

In the list so far, 2 contain four or more nitrogen atoms:
O=c1[nH]ccc2nc(-c3ccc(CN4CCC(c5nc(-c6ccccn6)n[nH]5)CC4)cc3)c(-c3ccccc3)cc12 (10 µM)
inactive: [1] 0 | [2] 0 | [3] 0 | [4] 0 | [5] 0 | [6] 0 | [7] 0 | [8] 0 | [9] 0 | [10] 0

CNC(=O)CNc1cnc2ccc(-c3ccc(OC)c(OC)c3)cc2n1 (10 µM)
inactive: [1] 0 | [2] 0 | [3] 0 | [4] 0 | [5] 0 | [6] 0 | [7] 0 | [8] 0 | [9] 0 | [10] 0

(continued)

O=C1Nc2ccc(I)cc2/C1=C/c1cc(Br)c(O)c(Br)c1 (10 µM)
inactive: [1] 0 | [2] 0 | [3] 0 | [4] 0 | [5] 0 | [6] 0 | [7] 0 | [8] 0 | [9] 0 | [10] 0

Cc1cc(Nc2cc(N3CCN(C)CC3)nc(Nc3ccc([N+](=O)[O-])cc3)n2)n[nH]1 (2.5 µM)
inactive: [1] 0 | [2] 0 | [3] 0 | [4] 0 | [5] 0 | [6] 0 | [7] 0 | [8] 0 | [9] 0 | [10] 0

O=C(Nc1ccc(Cl)cc1)C1CCCN(C(=O)c2cc(C(F)(F)F)cc(C(F)(F)F)c2)C1 (stereo not given) (10 µM)
inactive: [1] 0 | [2] 0 | [3] 0 | [4] 0 | [5] 0 | [6] 0 | [7] 0 | [8] 0 | [9] 0 | [10] 0

COC(=O)Nc1ccc(-c2nc(N3CCOCC3)c3cnn(C4CCN(Cc5cccnc5)CC4)c3n2)cc1 (10 µM)
inactive: [1] 0 | [2] 0 | [3] 0 | [4] 0 | [5] 0 | [6] 0 | [7] 0 | [8] 0 | [9] 0 | [10] 0

CC(C)n1ncnc1-c1cn2c(n1)-c1ccc(O[C@@H](C)C(N)=O)cc1OCC2 (10 µM)
inactive: [1] 0 | [2] 0 | [3] 0 | [4] 0 | [5] 0 | [6] 0 | [7] 0 | [8] 0 | [9] 0 | [10] 0

COc1cc2c(cc1O)C[C@H]1c3cc(O)c(OC)cc3CC[N@@+]1(C)C2 [Phellodendrine] (10 µM)
inactive: [1] 0 | [2] 0 | [3] 0 | [4] 0 | [5] 0 | [6] 0 | [7] 0 | [8] 0 | [9] 0 | [10] 0

O=C(Nc1cccnc1)c1cc(-c2ccnc(F)c2)ccc1OCc1ccccc1 (10 µM)
inactive: [1] 0 | [2] 0 | [3] 0 | [4] 0 | [5] 0 | [6] 0 | [7] 0 | [8] 0 | [9] 0 | [10] 0

COc1ccc(-c2cc(=O)c3c(OC)cc(OC)c(OC)c3o2)cc1 [6-Demethoxytangeretin] (10 µM)
inactive: [1] 0 | [2] 0 | [3] 0 | [4] 0 | [5] 0 | [6] 0 | [7] 0 | [8] 0 | [9] 0 | [10] 0

COc1cc2ncnc(Oc3ccc(CC(=O)Nc4cnn(C(C)C)c4)cc3)c2cc1OC (10 µM)
inactive: [1] 0 | [2] 0 | [3] 0 | [4] 0 | [5] 0 | [6] 0 | [7] 0 | [8] 0 | [9] 0 | [10] 0

COc1ccc(S(=O)(=O)Nc2cc(-c3c(O)ccc4ccccc34)c(O)c3ccccc23)cc1 (10 µM)
inactive: [1] 0 | [2] 0 | [3] 0 | [4] 0 | [5] 0 | [6] 0 | [7] 0 | [8] 0 | [9] 0 | [10] 0

CC(C)(C)Cc1[nH]nc2c1[C@@](C)(c1ccccc1)C1=C(CC(C)(C)CC1=O)N2 (10 µM)
inactive: [1] 0 | [2] 0 | [3] 0 | [4] 0 | [5] 0 | [6] 0 | [7] 0 | [8] 0 | [9] 0 | [10] 0

O=C(O)[C@H]1O[C@@H](Oc2cc3oc(-c4ccc(O)cc4)cc(=O)c3c(O)c2O)[C@H](O)[C@@H](O)[C@@H]1O [Scutellarin] (10 µM)
inactive: [1] 0 | [2] 0 | [3] 0 | [4] 0 | [5] 0 | [6] 0 | [7] 0 | [8] 0 | [9] 0 | [10] 0

O=C1NC(=O)/C(=C\c2c[nH]c(=O)c(-c3ccc(N4CCNCC4)nc3)c2)S1 [Protein kinase inhibitors 1 hydrochloride] (10 µM)
inactive: [1] 0 | [2] 0 | [3] 0 | [4] 0 | [5] 0 | [6] 0 | [7] 0 | [8] 0 | [9] 0 | [10] 0

CN(C)c1ccc(-c2nc3ncc(Cl)c(N4CCN(CC(=O)Nc5nccs5)CC4)c3[nH]2)cc1 (2 µM)
inactive: [1] 0 | [2] 0 | [3] 0 | [4] 0 | [5] 0 | [6] 0 | [7] 0 | [8] 0 | [9] 0 | [10] 0

Nc1ncnc2c1nc(Br)n2[C@@H]1O[C@@H]2COP(=O)(O)O[C@H]2[C@H]1O [8-Bromo-cAMP sodium salt] (10 µM)
inactive: [1] 0 | [2] 0 | [3] 0 | [4] 0 | [5] 0 | [6] 0 | [7] 0 | [8] 0 | [9] 0 | [10] 0

O=C(O)c1cc(N(Cc2ccccc2O)Cc2cc(O)ccc2O)ccc1O [Lavendustin A] (10 µM)
inactive: [1] 0 | [2] 0 | [3] 0 | [4] 0 | [5] 0 | [6] 0 | [7] 0 | [8] 0 | [9] 0 | [10] 0

Cn1cc(-c2cc(Oc3cc(F)c(NC(=O)C4(C(=O)Nc5ccccc5)CC4)cc3F)ccn2)cn1 (2.5 µM)
inactive: [1] 0 | [2] 0 | [3] 0 | [4] 0 | [5] 0 | [6] 0 | [7] 0 | [8] 0 | [9] 0 | [10] 0

c1nn(C2CCOCC2)cc1Nc1ncc2nnn(-c3ccc4cn[nH]c4c3)c2n1 (10 µM)
inactive: [1] 0 | [2] 0 | [3] 0 | [4] 0 | [5] 0 | [6] 0 | [7] 0 | [8] 0 | [9] 0 | [10] 0

Cc1cc(Nc2cc(N)ncn2)c(=O)n2c1C(=O)NC21CCCCC1 [Tomivosertib] (10 µM)
inactive: [1] 0 | [2] 0 | [3] 0 | [4] 0 | [5] 0 | [6] 0 | [7] 0 | [8] 0 | [9] 0 | [10] 0

c1ccc(Cn2c(-c3ccc(OC[C@H](C4CCNCC4)n4c(-c5ccccc5)nc5ccccc54)cc3)nc3ccccc32)cc1 [Deltarasin] (2.5 µM)
inactive: [1] 0 | [2] 0 | [3] 0 | [4] 0 | [5] 0 | [6] 0 | [7] 0 | [8] 0 | [9] 0 | [10] 0

COc1cc(-c2cc(-c3ccc(N4CCNCC4)cc3)cnc2C)cc(OC)c1OC (10 µM)
inactive: [1] 0 | [2] 0 | [3] 0 | [4] 0 | [5] 0 | [6] 0 | [7] 0 | [8] 0 | [9] 0 | [10] 0

CCN1CCN(Cc2cnc(Nc3cc(-c4cc(F)c5nc(C)n(C(C)C)c5c4)c(F)cn3)nc2)CC1 (10 µM)
inactive: [1] 0 | [2] 0 | [3] 0 | [4] 0 | [5] 0 | [6] 0 | [7] 0 | [8] 0 | [9] 0 | [10] 0

Cc1cc(C(=O)Nc2nc3cccc(Cl)c3n2[C@@H]2CCCCN(C(=O)/C=C/CN(C)C)C2)ccn1 [Nazartinib] (10 µM)
inactive: [1] 0 | [2] 0 | [3] 0 | [4] 0 | [5] 0 | [6] 0 | [7] 0 | [8] 0 | [9] 0 | [10] 0

O=C(c1cccc(Cl)c1F)N1CCN(Cc2cccc(Nc3nccs3)n2)CC1 (2.5 µM)
inactive: [1] 0 | [2] 0 | [3] 0 | [4] 0 | [5] 0 | [6] 0 | [7] 0 | [8] 0 | [9] 0 | [10] 0

CCn1c(-c2nonc2N)nc2c(C#CC(C)(C)O)ncc(OC[C@H]3CCCNC3)c21 (10 µM)
inactive: [1] 0 | [2] 0 | [3] 0 | [4] 0 | [5] 0 | [6] 0 | [7] 0 | [8] 0 | [9] 0 | [10] 0
